Consider 32 compounds from the supplement of paper PMC12889115.

Molecules are shown by their SMILES. The list shows a part of the results. These are raw signals, not scaled to a control.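 In the initial screen, polymyxin B was used at a concentration that permeabilizes Salmonella's outer membrane but not its inner membrane. Maximum growth was set by DMSO wells with or without polymyxin B. Since plates varied, data were ranked per plate, and compounds giving the lowest OD600 advanced as hits.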

This assay deals with Salmonella enterica serovar Typhimurium SL1344. In words: bacterial growth OD600 after 18 h with compound and polymyxin B; higher = more bacterial growth (less inhibition). Particulars: 50 µM, Mueller-Hinton broth.

For `c1ccc(-c2nc3c(c(N4CCN(Cc5cccc6c5OCO6)CC4)n2)CCC3)cc1`, the “bacterial growth OD600” value (polymyxin B 0.75 µg/mL) was 0.177.
Same read-out and setting: as for `COCCNC(=O)C1CCN(c2nc(C)c3ccccc3n2)CC1`, the figure is 0.939.
On the same count and under the same terms, as for `CCc1ncc(CN2CCOC(CCCc3ccccc3)C2)cn1` (configuration not stated), the figure is 0.95.
Take `COc1ccc(C(CC(=O)NCc2cccc(C)n2)c2ccccc2)cc1` (configuration not stated): the “bacterial growth OD600” value (polymyxin B 1 µg/mL) turned out to be 0.774.
In the case of `Cc1ccccc1-c1cnc(-c2ccncc2)nc1C1CCCN(C(=O)C(C)N2CCOCC2)C1` (configuration not stated), under “polymyxin B 0.75 µg/mL”, the “bacterial growth OD600” value stood at 0.779.
As to `Cc1c(-c2ccccc2F)[nH]c2ccc(CNC(=O)CC3CCC(=O)N3)cc12` (configuration not stated), under “polymyxin B 1 µg/mL”, the “bacterial growth OD600” value came to 0.908.
With `CN(Cc1cccnc1)C(=O)CC1C(=O)NCCN1CCCc1ccccc1` (configuration not stated), under “polymyxin B 1 µg/mL”, the “bacterial growth OD600” value is 0.86.
The same measure, in the same setting: as for `Cc1cc(C(=O)N2CCCC(C(=O)c3ccc(-c4ccccc4)cc3)C2)nn1C` (configuration not stated), the figure is 0.005; as for `CN1CCN([C@@H]2CCN(C(=O)/C=C/c3ccc(Cl)cc3)C[C@H]2O)CC1`, 0.941; as for `COc1ccc(CCN2CC(NC(=O)c3csc(C)n3)CC2=O)cc1` (configuration not stated), 0.856.
On to `O=C(/C=C/c1ccccc1F)N1CCC(C2(c3ccccn3)NC(=O)N(CC3CCCO3)C2=O)CC1` (configuration not stated), for which the “bacterial growth OD600” value (polymyxin B 0.75 µg/mL) amounted to 0.825.
Same read-out and setting: as for `O=C([C@@H]1C[C@H]1c1ccccc1)N1CCOc2ccc(CN3CCN(c4ccccn4)CC3)cc2C1`, the figure is 0.857; as for `COc1ccc2c(c1)SC(c1ccc(OC)c(C)c1)CCN2Cc1cccc2nccnc12` (configuration not stated), 0.008.
Take `O=C(NCCn1cccn1)c1cc(COc2ccc3c(c2)OCO3)[nH]n1`: under “polymyxin B 1 µg/mL”, the “bacterial growth OD600” value is 1.19.
For the compound `O=C(CCc1ccccn1)N1CCCC(CNC(=O)C2(c3ccc(Cl)cc3)CC2)C1` (configuration not stated), the “bacterial growth OD600” value (polymyxin B 1 µg/mL) was 0.644.
Turning to `O=C(Cn1nnnc1CN1CCCC1)N1CCN(Cc2cccnc2)CC1`, under “polymyxin B 0.75 µg/mL”, the “bacterial growth OD600” value is 0.784.
In the case of `CN(CC1CCCCO1)C(=O)c1cn(Cc2ccc(Cl)cc2)nn1` (configuration not stated), the “bacterial growth OD600” value (polymyxin B 1 µg/mL) was found to be 0.009.
As to `O=C(c1ccc(=O)[nH]n1)N1CCc2onc(-c3cccc4ccccc34)c2C1`, the “bacterial growth OD600” value (polymyxin B 0.75 µg/mL) was 0.006.
The same measure, in the same setting: as for `O=C(NCc1ccco1)N1CCC(C2CCN(CCc3ccccc3)C2)CC1` (configuration not stated), the figure is 0.515.
The same measure, in the same setting: as for `c1ccc(CCC2CN(Cc3cccs3)CCO2)cc1` (configuration not stated), the figure is 0.645.
Turning to `CCOC(=O)N1CCN(C2CCCN(C(=O)c3cc4cc(F)ccc4[nH]3)C2)CC1` (configuration not stated), where the note is “polymyxin B 1 µg/mL”, the “bacterial growth OD600” value worked out at 0.865.
For `CCNC(=O)c1cn(CCc2ccccc2)cc(C(=O)N2CCCC(c3ccccc3)CC2)c1=O` (configuration not stated), under “polymyxin B 0.75 µg/mL”, the “bacterial growth OD600” value is 0.899.
As for `O=C(NC1CCCCCCC1)C1CCC(=O)N(Cc2ccc(Cl)cc2)C1` (configuration not stated), the “bacterial growth OD600” value (polymyxin B 1 µg/mL) stood at 0.049.
On the same count and under the same terms, as for `CCCCn1c(CN2CCOCC2)cnc1S(=O)(=O)CC`, the figure is 1.
As to `OCC1CCCCN1CCNc1nc2nonc2nc1N1CCCC1` (configuration not stated), the “bacterial growth OD600” value (polymyxin B 0.75 µg/mL) is 0.785.
Consider `COc1ccccc1CC(=O)NC1CC(=O)N(Cc2ccc(F)cc2)C1` (configuration not stated), for which the “bacterial growth OD600” value (polymyxin B 1 µg/mL) was found to be 0.857.
On to `COc1ccccc1CC(=O)Nc1cnn(CC(=O)NCCc2ccc(C)cc2)c1`, for which the “bacterial growth OD600” value (polymyxin B 0.75 µg/mL) came out at 0.837.
For `CN(Cc1ccsc1)c1ccc(C(=O)NCCC2CCCCN2C)cn1` (configuration not stated), the “bacterial growth OD600” value (polymyxin B 1 µg/mL) came out at 1.11.
The same measure, in the same setting: as for `CC(=O)c1cc(CN2CCC(CCC(=O)N3CCN(c4ccccc4)CC3)CC2)cs1`, the figure is 0.967.
On the same count and under the same terms, as for `CN(Cc1nc(Cc2ccccc2Cl)no1)CC1COc2ccccc2O1` (configuration not stated), the figure is 0.779.
Same read-out and setting: as for `COC(=O)CCC(=O)N1CCC2(CCCN(Cc3ccccc3F)C2=O)C1` (configuration not stated), the figure is 1.05.
Take `CN(C)C(=O)CCC(=O)N1CCCC(CCc2cccc(C(F)(F)F)c2)C1` (configuration not stated): the “bacterial growth OD600” value (polymyxin B 0.75 µg/mL) was 0.26.
